# Measured values taken from the supplement of paper PMC4749390.
# Structures can show the parent of a compound that is named as a salt. This is one part of the list. This data set is noisy: repeats of one test often differ as much as different tests do.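 JEG3 cells stably express tetracycline-inducible wild-type human LRH-1, a highly sumoylated nuclear receptor. SUMO-sensitive transcripts APOC3 and MUC1, increased by SUMO-deficient LRH-1 or UBC9 knockdown, were quantified by RT-qPCR relative to TBP and DMSO controls. Primary hits had robust Z-scores above +2 or below -2, before toxicity and TBP filtering.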
# Tested on: JEG3 expressing hLRH-1
# Assay: APOC3 transcript change (ddCt vs TBP and DMSO), Z-score over library; higher = higher APOC3 expression
# Details: 10 µM; time (hr): 24
row,Structure (SMILES),APOC3 transcript change (Z-score)
1,CN(C)C(=S)SSC(=S)N(C)C [thiram],-2.13
2,CC(C)C[C@H](CN)CC(=O)O [pregabalin],-0.138
3,CCC(C)(C)O [amylene hydrate],-0.71
4,CC(C)(C)NCC(O)c1ccccc1Cl (stereo not drawn) [tulobuterol],-0.491
5,COc1ccc(C(=O)N2CCCC2=O)cc1 [Aniracetam],-1.06
6,CC(C)N(CCC(C(N)=O)(c1ccccc1)c1ccccn1)C(C)C (stereo not drawn) [Disopyramide phosphate],-1.06
7,OC[C@@H](O)[C@H]1O[C@@H]2O[C@H](C(Cl)(Cl)Cl)O[C@@H]2[C@H]1O [chloralose],-0.675
8,COc1ccc(O)c(C(C)(C)C)c1 [butylated hydroxyanisole],-0.184
9,CC(Cc1ccc(O)cc1)NCC(O)c1cc(O)cc(O)c1 (stereo not drawn) [fenoterol hydrobromide],0.155
10,CC[C@H]1C2CC3[C@@H]4N(C)c5ccccc5[C@]45C[C@@H](C2C5O)N3[C@@H]1O (stereo partly drawn) [ajmaline],0.632
11,"CNC(C)[C@H](O)c1ccccc1 (stereo partly drawn) [ephedrine (1r,2s) hydrochloride]",0.179
12,Nc1ccc([As](=O)(O)O)cc1 [arsanilic acid],-0.077
13,CCn1cc(C(=O)O)c(=O)c2cc3c(cc21)OCO3 [oxolinic acid],0.49
14,CN1C[C@H](C(=O)N[C@]2(C)O[C@@]3(O)C4CCCN4C(=O)[C@H](Cc4ccccc4)N3C2=O)C=C2c3cccc4[nH]cc(c34)C[C@H]21 (stereo partly drawn) [ergotamine tartrate],0.523
15,[N-]=[N+]=CC(=O)OCC(N)C(=O)O (stereo not drawn) [azaserine],1.05
16,COc1cccc([C@]2(O)CCCC[C@H]2CN(C)C)c1 [tramadol hydrochloride],-0.387
17,CNC(C)C(O)c1ccccc1 (stereo not drawn) [racephedrine hydrochloride],0.191
18,C=CCC1(C(C)CCC)C(=O)N=C(S)NC1=O (stereo not drawn) [thiamylal sodium],0.0976
19,CCC(=O)O[C@H]1CCC2C3CCC4=CC(=O)CC[C@]4(C)C3CC[C@@]21C (stereo partly drawn) [testosterone propionate],0.88
20,C[N+]1([O-])C2CCC1CC(OC(=O)C(CO)c1ccccc1)C2 (stereo not drawn) [atropine oxide],-0.547
21,O=C(OC1CC2CCC(C1)[N+]21CCCC1)C(O)(c1ccccc1)c1ccccc1 (stereo not drawn) [trospium chloride],0.34
22,O=[N+]([O-])C(Br)(CO)CO [bronopol],-1.2
23,C[C@@H](CO)NC(=O)[C@@H]1C=C2c3cccc4[nH]cc(c34)C[C@H]2N(C)C1 [ergonovine maleate],-0.074
24,Clc1ccc(C(OCCN2CCCCC2)c2ccccc2)cc1 (stereo not drawn) [cloperastine hydrochloride],0.44
25,CCOP(=S)(OCC)Oc1cc(C)nc(C(C)C)n1 [diazinon],0.353
26,"CC[C@@H](C(=O)[C@@H](C)[C@@H](O)[C@H](C)[C@@H]1O[C@@H]([C@@H](CC)C(=O)O)CC[C@@H]1C)[C@H]1OC2(C=C[C@@H](O)[C@]3(CC[C@@](C)([C@H]4CC[C@](O)(CC)[C@H](C)O4)O3)O2)[C@H](C)C[C@@H]1C (stereo partly drawn) [salinomycin, sodium]",-5.8

row,Structure (SMILES),APOC3 transcript change (Z-score)
1,CC(CC(C(N)=O)(c1ccccc1)c1ccccc1)N(C)C (stereo not drawn) [aminopentamide sulfate],0.411
2,Oc1ccc(Cl)cc1Cc1cc(Cl)ccc1O [dichlorophene],-1
3,NC(=O)CN1CCCC1=O [piracetam],-0.0264
4,NP(N)(=O)NC(=O)c1ccc(F)cc1 [flurofamide],0.0249
5,Oc1ccc(Cl)cc1 [parachlorophenol],0.901
6,NC(=O)CS(=O)C(c1ccccc1)c1ccccc1 (stereo not drawn) [modafinil],-0.447
7,CC1(C)C(C=C(Cl)Cl)C1C(=O)OCc1cccc(Oc2ccccc2)c1 (stereo not drawn) [permethrin],0.446
8,CCN1C[C@]2(COC)[C@H](O)C[C@H](OC)[C@@]34[C@@H]5C[C@@]6(O)[C@H](OC(=O)c7ccccc7)[C@@H]5[C@@](OC(C)=O)([C@@H]([C@H](OC)[C@H]23)[C@@H]14)[C@@H](O)[C@@H]6OC [aconitine],0.139
9,COc1cc2c(c(OC)c1OC)-c1ccc(OC)c(=O)cc1[C@@H](NC(C)=O)CC2 [colchicine],-4.44
10,C[C@]12CC[C@@H]3c4ccc(OC(=O)N(CCCl)CCCl)cc4CC[C@H]3[C@@H]1CC[C@@H]2O [estramustine],0.861
11,CCC(COC(=O)c1cc(OC)c(OC)c(OC)c1)(c1ccccc1)N(C)C (stereo not drawn) [trimebutine maleate],0.428
12,C[C@@H]1O[C@@H](O[C@H]2C[C@@H](O)[C@]3(CO)[C@H]4[C@H](O)C[C@]5(C)[C@@H](C6=CC(=O)OC6)CC[C@]5(O)[C@@H]4CC[C@]3(O)C2)[C@H](O)[C@H](O)[C@H]1O [ouabain],-5.14
13,C#C[C@@H]1CC2C3CCC4=C[C@@H](OC(C)=O)CCC4C3CC[C@]2(C)[C@H]1OC(C)=O (stereo partly drawn) [ethynodiol diacetate],-0.163
14,C=C[C@H]1CN2CC[C@H]1C[C@@H]2[C@H](O)c1ccnc2ccccc12 [cinchonine],-0.185
15,O=c1c2ccccc2[se]n1-c1ccccc1 [ebselen],1.16
16,Cc1cccc(C)c1NC1=NCCCS1 [Xylazine hydrochloride],1.2
17,NCC(O)c1ccc(O)cc1 (racemic) [(±)-Octopamine hydrochloride],0.866
18,N=C1NC(=O)N2CC12 (stereo not drawn) [imexon],-1.18
19,CC[C@@H](c1cccc(O)c1)[C@@H](C)CN(C)C [tapentadol hydrochloride],-0.00785
20,C=C(C)C1CNC(C(=O)O)C1CC(=O)O (stereo not drawn) [kainic acid],-0.113
21,CNC(=O)Oc1ccc2c(c1)[C@]1(C)CCN(C)[C@@H]1N2C [(-)-Physostigmine],-0.0668
22,COC(=O)C1=CCCN(C)C1 [Arecoline hydrobromide],0.0643
23,CCN(C(C)=O)c1cccc(-c2ccnc3c(C#N)cnn23)c1 [zaleplon],-0.307
24,C[N+]1(C)C2CC(OC(=O)[C@@H](CO)c3ccccc3)CC1C1OC12 (stereo in doubt) [methscopolamine bromide],-0.493
25,CC(C)(C)NCC(O)c1cc(Cl)c(N)c(Cl)c1 (stereo not drawn) [clenbuterol hydrochloride],0.239
26,COc1cc2c(cc1OC)[C@@]13CCN4CC5=CCO[C@H]6CC(=O)N2[C@H]1[C@H]6[C@H]5C[C@H]43 [brucine],-0.928

# Quoted at random: five entries already listed
row,Structure (SMILES),APOC3 transcript change (Z-score)
13,CCn1cc(C(=O)O)c(=O)c2cc3c(cc21)OCO3 [oxolinic acid],0.49
16,COc1cccc([C@]2(O)CCCC[C@H]2CN(C)C)c1 [tramadol hydrochloride],-0.387
23,C[C@@H](CO)NC(=O)[C@@H]1C=C2c3cccc4[nH]cc(c34)C[C@H]2N(C)C1 [ergonovine maleate],-0.074
20,C=C(C)C1CNC(C(=O)O)C1CC(=O)O (stereo not drawn) [kainic acid],-0.113
20,C[N+]1([O-])C2CCC1CC(OC(=O)C(CO)c1ccccc1)C2 (stereo not drawn) [atropine oxide],-0.547

# Further records follow.

row,Structure (SMILES),APOC3 transcript change (Z-score)
1,Oc1noc2c1CCNC2 [THIP hydrochloride],0.557
2,CNCC(=O)c1ccc(O)c(O)c1 [adrenolone hydrochloride],0.623
3,C[N+]1(C)C2CCC1CC(OC(=O)C(CO)c1ccccc1)C2 (stereo not drawn) [methylatropine nitrate],-0.0292
4,COc1ccc(Cc2nccc3cc(OC)c(OC)cc23)cc1OC [Papaverine hydrochloride],-1.94
5,C[C@]12CC[C@H]3[C@@H](CC[C@@]45O[C@@H]4C(O)=C(C#N)C[C@]35C)[C@@H]1CC[C@@H]2O [trilostane],-0.16
6,O=[N+]([O-])O[C@@H]1CO[C@H]2[C@@H]1OC[C@@H]2O [isosorbide mononitrate],-0.743
7,COc1ccc(CCN2CCC(Nc3nc4ccccc4n3Cc3ccc(F)cc3)CC2)cc1 [astemizole],-0.541
8,CCN(C)C(=O)Oc1cccc([C@H](C)N(C)C)c1 [rivastigmine tartrate],-0.092
9,"COc1ccc2c(c1OC)C(=O)O[C@@H]2[C@H]1c2cc3c(cc2CCN1C)OCO3 [hydrastine (1r, 9s)]",-0.216
10,CC[C@@H](CO)NC(=O)[C@@H]1C=C2c3cccc4c3c(cn4C)C[C@H]2N(C)C1 [methysergide maleate],1.07
11,C=C[C@H]1CN2CC[C@H]1C[C@@H]2[C@@H](OC(=O)OCC)c1ccnc2ccc(OC)cc12 [quinine ethyl carbonate],-0.0447
12,C[C@]12CC[C@H](O)CC1=CCC1C2CC[C@]2(C)C(=O)CC[C@@H]12 (stereo partly drawn) [prasterone],-0.558
13,CC[C@H]1CN2CCC1C[C@@H]2[C@@H](O)c1ccnc2ccc(OC)cc12 (stereo partly drawn) [hydroquinidine],0.483
14,COc1cc([C@@H]2c3cc4c(cc3[C@H](O)[C@H]3COC(=O)[C@H]23)OCO4)cc(OC)c1OC [podofilox],-2.32
15,CCC1(C2=NCCN2)Cc2ccccc2O1 (stereo not drawn) [efaroxan],0.331
16,CC(=O)O[C@H]1C[C@H](O[C@H]2[C@@H](O)C[C@H](O[C@H]3[C@@H](O)C[C@H](O[C@H]4CC[C@@]5(C)[C@H](CC[C@@H]6[C@@H]5C[C@@H](O)[C@]5(C)[C@@H](C7=CC(=O)OC7)CC[C@]65O)C4)O[C@@H]3C)O[C@@H]2C)O[C@H](C)[C@H]1O[C@@H]1O[C@H](CO)[C@@H](O)[C@H](O)[C@H]1O [lanatoside c],-6.43
17,O=[N+]([O-])OCC(CO[N+](=O)[O-])O[N+](=O)[O-] [nitroglycerin],-0.316
18,O=C(O)c1nn(Cc2ccc(Cl)cc2Cl)c2ccccc12 [lonidamine],0.493
19,Cc1ncc(CNC(=O)N(CCCl)N=O)c(N)n1 [nimustine],0.22
20,COc1ccc(C(CN(C)C)C2(O)CCCCC2)cc1 (stereo not drawn) [venlafaxine hydrochloride],0.795
21,O=P1(NCCCl)OCCCN1CCCl (stereo not drawn) [ifosfamide],-0.512
22,O=C(O)Cc1ccccc1 [sodium phenylacetate],0.0778
23,CC(C)(O)C(Cl)(Cl)Cl [chlorobutanol],2.38
24,Oc1cccc2cccnc12 [oxyquinoline],-0.98
25,O=c1n(Cl)c(=O)n(Cl)c(=O)n1Cl [symclosene],-0.173
26,"C[C@@H]([C@H](O)c1ccccc1)N(C)C [(-)-Ephedrine, N-Methyl]",-0.868
